Measurements taken from the supplement of paper PMC10849652.
The other results are listed elsewhere or left out.

Sequences of proteins named here, by UniProt entry; tags and fusion partners are left off. A change or cut given only in a name is not applied to a line headed by its entry.
UniProt O75896: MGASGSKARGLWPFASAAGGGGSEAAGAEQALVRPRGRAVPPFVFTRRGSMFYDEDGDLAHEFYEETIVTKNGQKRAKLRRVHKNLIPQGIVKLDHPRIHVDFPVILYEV
UniProt P33981: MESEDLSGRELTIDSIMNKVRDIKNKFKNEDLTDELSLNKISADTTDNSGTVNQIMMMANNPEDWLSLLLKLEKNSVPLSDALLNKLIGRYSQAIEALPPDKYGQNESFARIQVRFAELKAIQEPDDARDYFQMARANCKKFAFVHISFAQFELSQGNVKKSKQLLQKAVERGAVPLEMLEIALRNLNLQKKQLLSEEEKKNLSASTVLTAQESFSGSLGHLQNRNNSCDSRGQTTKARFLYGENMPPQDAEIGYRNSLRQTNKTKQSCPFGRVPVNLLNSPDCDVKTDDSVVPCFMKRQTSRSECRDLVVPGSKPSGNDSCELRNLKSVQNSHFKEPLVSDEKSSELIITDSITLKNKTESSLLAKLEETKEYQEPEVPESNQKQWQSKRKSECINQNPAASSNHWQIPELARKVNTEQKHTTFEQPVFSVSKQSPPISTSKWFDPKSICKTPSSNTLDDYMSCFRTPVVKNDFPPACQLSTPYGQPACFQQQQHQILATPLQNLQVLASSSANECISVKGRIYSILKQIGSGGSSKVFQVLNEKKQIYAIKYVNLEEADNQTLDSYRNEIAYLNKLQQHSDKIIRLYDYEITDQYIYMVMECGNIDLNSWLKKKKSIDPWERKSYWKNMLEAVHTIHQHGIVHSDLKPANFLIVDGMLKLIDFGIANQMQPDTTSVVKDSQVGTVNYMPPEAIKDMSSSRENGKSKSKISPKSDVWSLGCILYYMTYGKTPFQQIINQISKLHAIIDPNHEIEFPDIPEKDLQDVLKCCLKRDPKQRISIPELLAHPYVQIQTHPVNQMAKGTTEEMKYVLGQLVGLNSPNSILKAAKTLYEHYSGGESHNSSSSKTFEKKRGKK
UniProt O14817: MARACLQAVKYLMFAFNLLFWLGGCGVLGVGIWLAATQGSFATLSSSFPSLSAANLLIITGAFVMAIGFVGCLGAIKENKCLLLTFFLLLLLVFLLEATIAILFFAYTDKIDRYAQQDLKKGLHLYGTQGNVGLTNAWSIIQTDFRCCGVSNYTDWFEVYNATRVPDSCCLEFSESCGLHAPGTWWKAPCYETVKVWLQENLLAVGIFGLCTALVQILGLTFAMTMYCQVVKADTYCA
UniProt P29597: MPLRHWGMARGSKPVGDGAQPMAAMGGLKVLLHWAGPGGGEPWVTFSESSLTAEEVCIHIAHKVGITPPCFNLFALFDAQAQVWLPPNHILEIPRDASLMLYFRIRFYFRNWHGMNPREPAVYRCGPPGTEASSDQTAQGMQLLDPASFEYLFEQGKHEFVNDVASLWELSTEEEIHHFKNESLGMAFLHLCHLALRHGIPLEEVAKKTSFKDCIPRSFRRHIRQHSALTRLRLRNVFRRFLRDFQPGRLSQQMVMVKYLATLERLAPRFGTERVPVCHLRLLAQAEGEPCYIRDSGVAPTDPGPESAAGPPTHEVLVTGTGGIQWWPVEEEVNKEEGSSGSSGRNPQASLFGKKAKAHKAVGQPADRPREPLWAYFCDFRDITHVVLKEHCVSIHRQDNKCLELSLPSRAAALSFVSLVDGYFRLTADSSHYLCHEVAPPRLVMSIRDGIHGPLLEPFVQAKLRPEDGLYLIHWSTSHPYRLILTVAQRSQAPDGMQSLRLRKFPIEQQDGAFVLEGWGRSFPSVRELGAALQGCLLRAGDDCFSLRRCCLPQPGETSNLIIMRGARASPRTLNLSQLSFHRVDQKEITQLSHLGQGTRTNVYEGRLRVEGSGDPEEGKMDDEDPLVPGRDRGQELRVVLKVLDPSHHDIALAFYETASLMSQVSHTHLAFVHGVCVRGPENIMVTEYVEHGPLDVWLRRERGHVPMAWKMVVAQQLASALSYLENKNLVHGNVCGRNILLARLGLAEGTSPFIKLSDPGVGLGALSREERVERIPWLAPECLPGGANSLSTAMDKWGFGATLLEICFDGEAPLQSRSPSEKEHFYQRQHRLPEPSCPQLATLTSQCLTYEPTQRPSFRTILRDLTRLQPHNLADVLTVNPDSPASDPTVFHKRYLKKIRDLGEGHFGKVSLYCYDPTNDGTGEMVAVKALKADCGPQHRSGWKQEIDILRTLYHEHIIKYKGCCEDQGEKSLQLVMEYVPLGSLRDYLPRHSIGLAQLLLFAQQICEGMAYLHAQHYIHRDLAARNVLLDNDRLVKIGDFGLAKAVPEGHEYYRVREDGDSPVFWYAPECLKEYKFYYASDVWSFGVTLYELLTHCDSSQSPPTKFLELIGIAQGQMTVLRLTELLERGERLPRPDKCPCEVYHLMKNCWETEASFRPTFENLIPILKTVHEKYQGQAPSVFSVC
UniProt Q6NXR4: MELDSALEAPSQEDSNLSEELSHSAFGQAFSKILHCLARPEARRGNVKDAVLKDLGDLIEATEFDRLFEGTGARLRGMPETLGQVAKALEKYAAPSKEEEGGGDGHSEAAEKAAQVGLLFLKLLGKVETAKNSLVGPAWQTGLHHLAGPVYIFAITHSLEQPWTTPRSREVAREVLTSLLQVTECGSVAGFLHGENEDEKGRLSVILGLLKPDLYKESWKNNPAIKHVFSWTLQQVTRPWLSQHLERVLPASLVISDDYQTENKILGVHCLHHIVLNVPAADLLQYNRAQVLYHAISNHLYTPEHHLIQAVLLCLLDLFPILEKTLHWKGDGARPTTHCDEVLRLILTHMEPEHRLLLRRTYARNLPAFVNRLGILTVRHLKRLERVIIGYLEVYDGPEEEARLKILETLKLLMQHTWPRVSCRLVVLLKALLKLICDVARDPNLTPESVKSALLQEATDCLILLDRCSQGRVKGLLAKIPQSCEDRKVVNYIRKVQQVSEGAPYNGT
UniProt Q3ZCM7, whole entry, looked up: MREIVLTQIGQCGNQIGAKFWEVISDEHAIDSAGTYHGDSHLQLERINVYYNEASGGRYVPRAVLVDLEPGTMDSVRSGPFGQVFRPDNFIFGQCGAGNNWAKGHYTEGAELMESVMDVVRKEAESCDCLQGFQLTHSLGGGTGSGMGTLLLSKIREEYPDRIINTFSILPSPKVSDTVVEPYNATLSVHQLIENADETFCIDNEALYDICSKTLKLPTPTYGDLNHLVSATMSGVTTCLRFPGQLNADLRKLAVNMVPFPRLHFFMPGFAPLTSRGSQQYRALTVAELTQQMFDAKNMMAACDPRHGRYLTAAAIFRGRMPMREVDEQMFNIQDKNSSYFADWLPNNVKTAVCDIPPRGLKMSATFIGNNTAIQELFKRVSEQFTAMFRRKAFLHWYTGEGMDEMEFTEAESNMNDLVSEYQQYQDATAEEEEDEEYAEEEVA
UniProt Q6PGP7, whole entry, looked up: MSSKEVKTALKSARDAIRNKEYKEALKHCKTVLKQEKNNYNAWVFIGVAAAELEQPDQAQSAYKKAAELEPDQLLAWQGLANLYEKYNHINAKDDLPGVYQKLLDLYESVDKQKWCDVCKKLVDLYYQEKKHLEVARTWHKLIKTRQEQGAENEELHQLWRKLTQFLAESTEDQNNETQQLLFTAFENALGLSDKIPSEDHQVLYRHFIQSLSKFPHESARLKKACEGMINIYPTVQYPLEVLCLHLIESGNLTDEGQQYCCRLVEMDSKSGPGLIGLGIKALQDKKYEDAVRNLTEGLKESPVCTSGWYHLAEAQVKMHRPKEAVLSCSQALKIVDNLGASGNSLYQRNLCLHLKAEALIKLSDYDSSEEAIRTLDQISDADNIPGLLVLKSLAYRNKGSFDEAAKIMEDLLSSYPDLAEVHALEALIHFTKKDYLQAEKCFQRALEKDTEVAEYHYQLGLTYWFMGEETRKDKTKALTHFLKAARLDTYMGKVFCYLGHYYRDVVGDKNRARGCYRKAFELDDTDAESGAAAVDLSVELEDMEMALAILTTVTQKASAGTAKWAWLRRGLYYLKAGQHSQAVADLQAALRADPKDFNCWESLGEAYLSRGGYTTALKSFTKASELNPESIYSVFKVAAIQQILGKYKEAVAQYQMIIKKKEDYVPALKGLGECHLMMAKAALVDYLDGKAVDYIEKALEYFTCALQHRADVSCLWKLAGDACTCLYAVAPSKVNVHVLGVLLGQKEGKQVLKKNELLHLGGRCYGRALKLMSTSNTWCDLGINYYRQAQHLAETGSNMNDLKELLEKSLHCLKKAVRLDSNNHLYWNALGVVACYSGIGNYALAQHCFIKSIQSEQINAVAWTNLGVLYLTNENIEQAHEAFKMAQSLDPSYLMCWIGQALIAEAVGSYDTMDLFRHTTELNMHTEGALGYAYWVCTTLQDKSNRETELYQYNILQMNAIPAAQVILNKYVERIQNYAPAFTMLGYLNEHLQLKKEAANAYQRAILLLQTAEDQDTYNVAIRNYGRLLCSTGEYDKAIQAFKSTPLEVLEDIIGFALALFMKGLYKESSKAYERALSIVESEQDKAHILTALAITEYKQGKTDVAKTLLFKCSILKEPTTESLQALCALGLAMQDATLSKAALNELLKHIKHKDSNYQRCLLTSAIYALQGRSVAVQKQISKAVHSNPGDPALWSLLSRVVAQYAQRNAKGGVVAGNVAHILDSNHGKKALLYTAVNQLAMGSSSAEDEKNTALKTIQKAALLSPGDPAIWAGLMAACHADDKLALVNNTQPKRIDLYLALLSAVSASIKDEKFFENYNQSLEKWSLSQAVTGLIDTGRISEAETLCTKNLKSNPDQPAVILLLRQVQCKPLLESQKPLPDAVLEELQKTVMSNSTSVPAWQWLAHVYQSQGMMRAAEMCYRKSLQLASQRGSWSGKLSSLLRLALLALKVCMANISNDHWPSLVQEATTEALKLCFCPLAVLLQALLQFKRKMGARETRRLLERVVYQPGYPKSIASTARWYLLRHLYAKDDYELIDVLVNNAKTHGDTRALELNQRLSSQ
UniProt Q8NBP0: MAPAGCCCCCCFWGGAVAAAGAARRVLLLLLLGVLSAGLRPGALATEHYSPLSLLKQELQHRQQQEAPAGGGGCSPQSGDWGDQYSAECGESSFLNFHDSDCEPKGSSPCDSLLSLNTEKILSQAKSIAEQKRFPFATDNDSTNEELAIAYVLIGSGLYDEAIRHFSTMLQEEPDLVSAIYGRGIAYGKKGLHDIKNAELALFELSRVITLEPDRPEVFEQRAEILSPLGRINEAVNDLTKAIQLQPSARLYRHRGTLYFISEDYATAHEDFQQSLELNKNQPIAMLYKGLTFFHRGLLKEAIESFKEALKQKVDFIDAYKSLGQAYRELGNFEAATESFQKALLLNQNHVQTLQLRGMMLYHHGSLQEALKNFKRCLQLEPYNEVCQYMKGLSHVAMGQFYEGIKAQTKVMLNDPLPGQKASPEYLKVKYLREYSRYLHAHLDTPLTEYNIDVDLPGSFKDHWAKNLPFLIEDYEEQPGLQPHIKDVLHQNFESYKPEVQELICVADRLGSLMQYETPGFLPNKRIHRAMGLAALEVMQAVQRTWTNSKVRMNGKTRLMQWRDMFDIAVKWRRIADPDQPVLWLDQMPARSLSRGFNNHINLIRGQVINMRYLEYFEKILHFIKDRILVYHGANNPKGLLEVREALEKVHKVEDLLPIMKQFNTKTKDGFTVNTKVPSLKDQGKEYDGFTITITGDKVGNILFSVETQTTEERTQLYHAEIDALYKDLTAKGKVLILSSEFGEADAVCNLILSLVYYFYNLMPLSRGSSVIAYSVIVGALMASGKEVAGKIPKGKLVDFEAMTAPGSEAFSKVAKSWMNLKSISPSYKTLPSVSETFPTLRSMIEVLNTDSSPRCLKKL
UniProt Q9P2K2: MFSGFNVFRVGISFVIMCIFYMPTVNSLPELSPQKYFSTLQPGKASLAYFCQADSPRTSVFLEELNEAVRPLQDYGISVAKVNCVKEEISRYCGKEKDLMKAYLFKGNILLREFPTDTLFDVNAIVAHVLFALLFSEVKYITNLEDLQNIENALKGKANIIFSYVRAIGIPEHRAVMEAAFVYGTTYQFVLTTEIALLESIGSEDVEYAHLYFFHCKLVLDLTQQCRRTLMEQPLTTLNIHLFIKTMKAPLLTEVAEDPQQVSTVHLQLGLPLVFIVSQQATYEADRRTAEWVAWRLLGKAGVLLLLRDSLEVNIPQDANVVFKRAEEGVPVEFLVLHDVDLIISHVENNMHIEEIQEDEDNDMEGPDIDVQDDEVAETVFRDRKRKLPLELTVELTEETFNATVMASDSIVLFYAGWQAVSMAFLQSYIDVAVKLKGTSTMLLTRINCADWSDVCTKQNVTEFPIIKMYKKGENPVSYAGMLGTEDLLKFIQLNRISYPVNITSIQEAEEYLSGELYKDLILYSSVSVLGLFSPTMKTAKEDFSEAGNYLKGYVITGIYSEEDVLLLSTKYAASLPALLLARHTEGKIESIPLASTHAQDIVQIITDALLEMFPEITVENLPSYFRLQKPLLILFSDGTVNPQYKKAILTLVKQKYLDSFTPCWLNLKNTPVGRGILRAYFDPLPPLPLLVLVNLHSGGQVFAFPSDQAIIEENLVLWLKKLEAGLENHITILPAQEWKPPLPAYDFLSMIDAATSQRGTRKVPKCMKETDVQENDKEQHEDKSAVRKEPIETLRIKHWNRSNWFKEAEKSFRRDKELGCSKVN

How the values were obtained:
Assay in all cases: log2 fold change, soluble protein after heating vs DMSO (PISA); higher = thermal stabilisation; K562 cells, 10 uM, 30 min; active = over 0.2 and 3.5 SD of the protein, either way, in both replicates (recomputed)
bafetinib = compound: Cc1ccc(NC(=O)c2ccc(CN3CC[C@H](N(C)C)C3)c(C(F)(F)F)c2)cc1Nc1nccc(-c2cncnc2)n1 [bafetinib]
In short: (§1)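 Values are thermal stability changes relative to control samples and are taken from duplicates. They are stated as log2 fold changes. Before quantification by TMTpro 16plex LC-MS/MS with equalised channel sums, K562 cells at 2×10^6 cells/mL were treated with 10 μM compound for 30 min, heated in aliquots for 3 min across 48°C-58°C, pooled, extracted in PBS with 0.5% NP-40 at 4°C, and centrifuged at 21,000xg for 90 min to give the soluble supernatant.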

dasatinib = compound: Cc1nc(Nc2ncc(C(=O)Nc3c(C)cccc3Cl)s2)cc(N2CCN(CCO)CC2)n1 [dasatinib]
In short: as §1

[1] = compound: Cn1cc(-c2ccc3c(c2)CCN3C(=O)Cc2cccc(C(F)(F)F)c2)c2c(N)ncnc21
In short: as §1

[2] = compound: Cn1cc(-c2ccc3nnc(C(F)(F)c4ccc5ncccc5c4)n3n2)cn1
In short: as §1

tipifarnib = compound: Cn1cncc1[C@@](N)(c1ccc(Cl)cc1)c1ccc2c(c1)c(-c1cccc(Cl)c1)cc(=O)n2C [tipifarnib]
In short: as §1

[3] = compound: Cc1cccc(CC(=O)N2CCc3c2ccc(-c2cn(C)c4ncnc(N)c24)c3F)n1
In short: as §1

mubritinib = compound: FC(F)(F)c1ccc(/C=C/c2nc(COc3ccc(CCCCn4ccnn4)cc3)co2)cc1 [mubritinib]
In short: as §1

nilotinib = compound: Cc1cn(-c2cc(NC(=O)c3ccc(C)c(Nc4nccc(-c5cccnc5)n4)c3)cc(C(F)(F)F)c2)cn1 [nilotinib]
In short: as §1

[4] = compound: Cc1nc(Nc2n[nH]c3c2CN(C(=O)N[C@H](CN(C)C)c2ccccc2)C3(C)C)c2sccc2n1
In short: as §1

[5] = compound: Cc1ncc(-c2ccnc(Nc3ccc(S(C)(=O)=O)cc3)n2)n1C(C)C
In short: as §1

Measured: log2 fold change

TUBGCP4 (UniProt Q9UGJ1)
inactive: bafetinib 0.014 | dasatinib -0.098 | [1] -0.118 | [2] -0.155 | tipifarnib -0.088

TTC21B (UniProt Q7Z4L5)
inactive: dasatinib 0.071 | tipifarnib 0.114

TYW5 (UniProt A2RUC4)
inactive: [3] -0.067 | [2] -0.06 | tipifarnib 0.129 | mubritinib 0.087

TUSC2 (UniProt O75896)
inactive: bafetinib -0.031 | nilotinib 0.107 | [4] -0.101 | [5] 0.008 | mubritinib 0.061

TUBA4A (UniProt C9JJQ8)
inactive: bafetinib 0.116 | dasatinib -0.082 | [1] 0.012 | tipifarnib 0.047

TUBB6 (UniProt K7ES63)
inactive: bafetinib 0.059 | nilotinib -0.075 | [4] -0.019 | dasatinib 0.055 | [5] -0.042 | [1] -0.295 | [2] -0.072 | tipifarnib 0.104 | mubritinib -0.009

TSKU (UniProt Q8WUA8)
inactive: [1] -0.056 | tipifarnib -0.005

TTK (UniProt P33981)
inactive: [2] -0.35

TYRO3 (UniProt Q06418)
inactive: bafetinib -0.144 | nilotinib 0.045 | [4] 0.018 | [5] -0.165

UBA52 (UniProt P62987)
inactive: bafetinib 0.285 | [3] -0.001 | [1] -0.343 | [2] -0.16 | tipifarnib 0.247 | mubritinib -0.115

UBE3B (UniProt Q7Z3V4)
inactive: bafetinib -0.134 | nilotinib 0.072 | [4] 0.03 | dasatinib -0.028 | [5] 0.116 | [1] -0.062 | [2] 0.103 | tipifarnib -0.112

TUBB8B (UniProt A6NNZ2)
inactive: bafetinib 0.027 | nilotinib 0.066 | [4] 0.054 | [5] -0.038 | [1] 0.086 | [2] -0.006 | mubritinib 0.038

UBE2K (UniProt D6RDM7)
inactive: bafetinib -0.264 | nilotinib -0.064 | [4] -0.215 | dasatinib 0.226 | [5] -0.096 | [1] -0.188 | [2] 0.059 | tipifarnib 0.219

UBE2L5, A0A1B0GUS4
inactive: [1] -0.03

TWNK (UniProt Q96RR1)
inactive: bafetinib -0.033 | nilotinib 0.1 | [4] -0.036 | [5] -0.101 | [2] -0.058

TXNRD1 isoform 7 (UniProt Q16881)
inactive: bafetinib -0.124 | [3] 0.001 | dasatinib -0.052 | tipifarnib -0.051

Taken from the results shown (two entries):
TWNK (UniProt Q96RR1)
inactive: bafetinib -0.033 | nilotinib 0.1 | [4] -0.036 | [5] -0.101 | [2] -0.058

TXNRD1 isoform 7 (UniProt Q16881)
inactive: bafetinib -0.124 | [3] 0.001 | dasatinib -0.052 | tipifarnib -0.051

Going on with the list.

TSPAN3 (UniProt O60637)
inactive: bafetinib -0.09 | nilotinib 0.05 | [4] 0.006 | dasatinib -0.044 | [5] 0.009 | [1] 0.098 | [2] 0.123 | tipifarnib 0.085 | mubritinib 0.03

TST (UniProt Q16762)
inactive: nilotinib -0.07 | [4] -0.095 | dasatinib -0.045 | [5] 0.064 | [1] 0.064 | tipifarnib 0.059 | mubritinib -0.142

TSPAN4 (UniProt O14817)
inactive: bafetinib 0.064 | [2] -0.112 | mubritinib 0.325

TUBD1 (UniProt Q9UJT1)
inactive: [2] -0.129 | tipifarnib 0.034

TXNDC2 (UniProt Q86VQ3)
inactive: bafetinib -0.038 | nilotinib -0.226 | [4] -0.144 | dasatinib -0.019 | [5] 0.068 | [2] -0.034 | tipifarnib 0.008

TTF2 (UniProt Q9UNY4)
inactive: [3] -0.068 | nilotinib 0.024 | [4] 0.139 | dasatinib -0.432 | [5] 0.216 | [1] -0.038 | [2] -0.157 | tipifarnib 0.102 | mubritinib -0.118

TYK2 (UniProt P29597)
inactive: bafetinib -0.054 | dasatinib -0.089 | tipifarnib 0.087

TTC14 (UniProt Q96N46)
inactive: bafetinib -0.1 | [1] 0.163

TTC5 (UniProt Q8N0Z6)
inactive: dasatinib 0.11 | [2] 0.032

TTC12 isoform 2 (UniProt Q9H892)
inactive: bafetinib 0.299 | nilotinib -0.29 | [4] 0.215 | dasatinib 0.094 | [5] -0.071 | [1] -0.162 | [2] 0.148 | mubritinib 0.035

TUT7 (UniProt Q5VYS8)
inactive: [3] 0.11 | nilotinib 0.041 | [4] 0.111 | [5] -0.05 | [1] -0.037

TTI2 (UniProt Q6NXR4)
inactive: bafetinib 0.06 | nilotinib -0.028 | [4] -0.068 | dasatinib -0.005 | [5] 0.077 | [1] -0.017 | [2] -0.007 | tipifarnib -0.059 | mubritinib -0.063

TSPAN31 (UniProt Q12999)
inactive: nilotinib 0.208 | [4] -0.367 | dasatinib 0.004 | [5] 0.43 | [1] -0.025 | tipifarnib 0.024 | mubritinib 0.132

TUBB8 (UniProt Q3ZCM7)
inactive: nilotinib -0.089 | [4] -0.1 | dasatinib 0 | [5] 0.137 | [2] 0

TTC37 (UniProt Q6PGP7)
inactive: bafetinib 0.008 | [2] 0.17

TTC13 (UniProt Q8NBP0)
inactive: [3] -0.117 | dasatinib 0.194 | [1] -0.258 | [2] 0.112

TTR (UniProt P02766)
inactive: mubritinib -0.093

TSPYL1 (UniProt Q9H0U9)
inactive: nilotinib 0.209 | [4] 0.117 | [5] -0.053 | [1] -0.052 | tipifarnib 0.113

TVP23C (UniProt Q96ET8)
inactive: [3] 0.033 | dasatinib 0.056 | [1] -0.116 | tipifarnib 0.041 | mubritinib 0.04

U2AF1L5 (UniProt P0DN76)
inactive: bafetinib 0.047 | nilotinib 0.025 | [4] -0.669 | dasatinib -0.017 | [5] -0.108 | mubritinib 0.173

TXNDC16 (UniProt Q9P2K2)
inactive: [3] 0.065 | nilotinib 0.007 | [4] 0.029 | dasatinib 0.024 | [5] -0.051 | [1] -0.094 | [2] 0.01 | tipifarnib -0.07 | mubritinib 0.063

TTC26
inactive: bafetinib -0.04 | [2] 0.04
